Drawing on PubChem BioAssay AID248 (DTP/NCI, 2004), this text covers T/C and survivor count for 20 compounds.

In the assay the test system is L1210 leukemia ip in BDF1 mice, survival T/C. The experiment in a line: NCI In Vivo Anticancer Drug Screen. Data for tumor model L1210 Leukemia (intraperitoneal) in B6D2F1 (BDF1) mice. The note with it: higher T/C = longer survival.
The mark [1] stands for this setting: T/C endpoint: mean survival time, dose: 200.0 mg/kg/injection, schedule: Q04DX003 (ip), vehicle: saline with Tween-80.
[2] abbreviates: T/C endpoint: mean survival time, dose: 400.0 mg/kg/injection, schedule: Q04DX003 (ip), vehicle: saline with Tween-80.
The mark [3] stands for this setting: T/C endpoint: mean survival time, dose: 150.0 mg/kg/injection, schedule: Q01DX001 (ip), vehicle: saline.
Where [4] appears, read: T/C endpoint: mean survival time, dose: 300.0 mg/kg/injection, schedule: Q01DX001 (ip), vehicle: saline.
Where [5] appears, read: T/C endpoint: mean survival time, dose: 300.0 mg/kg/injection, schedule: Q01DX001 (ip), vehicle: other.
Setting [6] is: T/C endpoint: mean survival time, dose: 400.0 mg/kg/injection, schedule: Q04DX002 (ip), vehicle: saline.
Setting [7] is: T/C endpoint: mean survival time, dose: 100.0 mg/kg/injection, schedule: Q01DX009 (ip), vehicle: saline.
Where [8] appears, read: T/C endpoint: mean survival time, dose: 200.0 mg/kg/injection, schedule: Q01DX009 (ip), vehicle: saline.

The structures appear in SMILES notation. The list shows only some results of the screen, not a fair sample: it gathers tests that were run many times, whatever their T/C, doses with no T/C, and many T/C values between a quarter and a half above the control. Other doses and runs of a compound stand elsewhere. T/C is the treated group as % of the vehicle group. Some entries give survivors of the animals treated and no T/C: the source files T/C as zero there, which appears to mark a toxic dose or a test without result, not a measured value. Some doses without a T/C left all or most animals alive at the check, yet need not have been tolerated: survival well below the control is almost never listed, so the zero probably covers shortened survival too. Survivors were counted at the toxicity check, usually on the fifth day, unless a day is given; later deaths do not show. Schedule codes are those of the source, read here as Q, the interval in days (D) or hours (H), X, the number of doses. Some schedule codes hold Z or #, which are not explained here. Some molecules as drawn cover several salts, stereoisomers or complexes of the source; a dose is that of the sample tested. Some entries hold several experiments; the values are given in rising order. For survival time, the PubChem record calls one and a half times the control and up active, and a quarter to a half above the control has no call in these data; cut-offs in other NCI protocols can differ. Some T/C values are followed by the survivors on the day toxicity was checked, most often the fifth; without a count, all were alive then.

On to `CC1CCC(NC(=O)N(CCF)N=O)CC1` (stereo unspecified), for which the T/C by setting is: (T/C endpoint: mean survival time, dose: 12.0 mg/kg/injection, schedule: Q01DX001 (ip), vehicle: other) 131 % of control; (T/C endpoint: mean survival time, dose: 18.0 mg/kg/injection, schedule: Q01DX001 (ip), vehicle: other) 148 % of control. Besides, the survivor count reads like this: (T/C endpoint: mean survival time, dose: 90.0 mg/kg/injection, schedule: Q01DX001 (ip), vehicle: other) 5 of 10; (T/C endpoint: mean survival time, dose: 135.0 mg/kg/injection, schedule: Q01DX001 (ip), vehicle: other) 2 of 10; (T/C endpoint: mean survival time, dose: 200.0 mg/kg/injection, schedule: Q01DX001 (ip), vehicle: other) 0 of 10.
For `[Si]c1ccc(-c2ccccc2)cc1`, the survivor count under setting [1] is 6 of 6 and the survivor count under setting [2] is 6 of 6.
Consider `CC(C)(C)CC(C)(C)NCc1ccccc1`, for which the survivor count (T/C endpoint: mean survival time, dose: 100.0 mg/kg/injection, schedule: Q04DX003 (ip), vehicle: saline with Tween-80) is given as 6 of 6; the survivor count under setting [1] is 0 of 6; the survivor count under setting [2] was 0 of 6.
With `C/C=C/C[P+](c1ccccc1)(c1ccccc1)c1ccccc1`, the survivor count is 0 of 3 (T/C endpoint: mean survival time, dose: 25.0 mg/kg/injection, schedule: Q01DX009 (ip), vehicle: saline with Tween-80); 0 of 3 and 1 of 3 (T/C endpoint: mean survival time, dose: 50.0 mg/kg/injection, schedule: Q01DX009 (ip), vehicle: saline with Tween-80); 0 of 6 (T/C endpoint: mean survival time, dose: 60.0 mg/kg/injection, schedule: Q01DX001 (ip), vehicle: saline); 1 of 6 (T/C endpoint: mean survival time, dose: 75.0 mg/kg/injection, schedule: Q01DX001 (ip), vehicle: saline); 0 of 3 (T/C endpoint: mean survival time, dose: 100.0 mg/kg/injection, schedule: Q01DX009 (ip), vehicle: saline with Tween-80); 0 of 6 under setting [3]. The survivor count runs as follows: (T/C endpoint: mean survival time, dose: 200.0 mg/kg/injection, schedule: Q01DX009 (ip), vehicle: saline with Tween-80) 0 of 3; under setting [4], 0 of 6.
On to `CCN(CC)CCOC(=O)C(S)(c1ccccc1)C1CCCCC1` (stereo unspecified), for which the survivor count under setting [5] is recorded as 2 of 6.
Regarding `CCC(=O)OCCOc1ccc(C(C)(C)C)cc1`, the survivor count (T/C endpoint: mean survival time, dose: 400.0 mg/kg/injection, schedule: Q01DX009 (ip), vehicle: saline) is listed as 0 of 3 and the survivor count under setting [6] is 2 of 3.
For the compound `CCCNC(c1ccccc1)=[N+]1C(C)CCCC1C` (stereo unspecified), the survivor count was 0 of 3 (T/C endpoint: mean survival time, dose: 50.0 mg/kg/injection, schedule: Q04DX002 (ip), vehicle: saline); 3 of 3 (T/C endpoint: mean survival time, dose: 100.0 mg/kg/injection, schedule: Q04DX002 (ip), vehicle: saline); 3 of 3 (T/C endpoint: mean survival time, dose: 200.0 mg/kg/injection, schedule: Q04DX002 (ip), vehicle: saline); 3 of 3 under setting [6].
Take `NC(C(=O)c1ccccc1)c1ccccc1.[Cl][Sn][Cl]` (stereo unspecified): under setting [4], the survivor count was 1 of 6.
For `CC(C)CCCC(C)C1CCC2C3CC(O)C4=CCCCC4(C)C3CCC12C` (stereo unspecified), the survivor count runs as follows: (T/C endpoint: mean survival time, dose: 75.0 mg/kg/injection, schedule: Q01DX001 (ip), vehicle: other) 6 of 6; (T/C endpoint: mean survival time, dose: 150.0 mg/kg/injection, schedule: Q01DX001 (ip), vehicle: other) 6 of 6; under setting [5], 5 of 6.
With `CC1CC/C(=C\c2ccccc2)C(=O)/C1=C/c1ccccc1` (stereo unspecified), the survivor count (T/C endpoint: mean survival time, dose: 400.0 mg/kg/injection, schedule: Q01DX009 (ip), vehicle: DMSO) is given as 6 of 6.
Regarding `c1nnc(NCNc2nncs2)s1`, the T/C reads like this: (T/C endpoint: mean survival time, dose: 4.0 mg/kg/injection, schedule: Q01DX009 (ip), vehicle: Klucel (hydroxypropylcellulose) (HPC)) 131 % of control; (T/C endpoint: mean survival time, dose: 8.0 mg/kg/injection, schedule: Q04DX003 (ip), vehicle: Klucel (hydroxypropylcellulose) (HPC)) 125 % of control; (T/C endpoint: mean survival time, dose: 9.0 mg/kg/injection, schedule: Q01DX009 (ip), vehicle: Klucel (hydroxypropylcellulose) (HPC)) 134 % of control; (T/C endpoint: mean survival time, dose: 13.0 mg/kg/injection, schedule: Q01DX009 (ip), vehicle: Klucel (hydroxypropylcellulose) (HPC)) 129 % of control; (T/C endpoint: mean survival time, dose: 26.0 mg/kg/injection, schedule: Q04DX003 (ip), vehicle: Klucel (hydroxypropylcellulose) (HPC)) 132 % of control; (T/C endpoint: mean survival time, dose: 30.0 mg/kg/injection, schedule: Q01DX009 (ip), vehicle: saline) 130 % of control. The T/C (T/C endpoint: mean survival time, dose: 40.0 mg/kg/injection, schedule: Q04DX003 (ip), vehicle: Klucel (hydroxypropylcellulose) (HPC)) is 130 % of control; the T/C (T/C endpoint: mean survival time, dose: 60.0 mg/kg/injection, schedule: Q04DX003 (ip), vehicle: Klucel (hydroxypropylcellulose) (HPC)) was 135 % of control; the T/C (T/C endpoint: mean survival time, dose: 88.0 mg/kg/injection, schedule: Q04DX003 (ip), vehicle: Klucel (hydroxypropylcellulose) (HPC)) was 142 % of control; the T/C (T/C endpoint: mean survival time, dose: 100.0 mg/kg/injection, schedule: Q04DX003 (ip), vehicle: saline) is 139 % of control; the T/C (T/C endpoint: mean survival time, dose: 132.0 mg/kg/injection, schedule: Q04DX003 (ip), vehicle: Klucel (hydroxypropylcellulose) (HPC)) was 148 % of control; the T/C (T/C endpoint: mean survival time, dose: 200.0 mg/kg/injection, schedule: Q01DX001 (ip), vehicle: saline) was 127 % of control. The T/C (T/C endpoint: mean survival time, dose: 200.0 mg/kg/injection, schedule: Q04DX003 (ip), vehicle: Klucel (hydroxypropylcellulose) (HPC)) was 148 % of control and the T/C (T/C endpoint: mean survival time, dose: 400.0 mg/kg/injection, schedule: Q01DX001 (ip), vehicle: saline) is 130 % of control. Further, the survivor count (T/C endpoint: mean survival time, dose: 400.0 mg/kg/injection, schedule: Q04DX003 (ip), vehicle: saline) is given as 6 of 6.
For `O=C(CCCc1ccc(N(CCCl)CCCl)cc1)Nc1ncccn1`, the survivor count (T/C endpoint: mean survival time, dose: 24.0 mg/kg/injection, schedule: Q01DX015 (ip), vehicle: carboxymethylcellulose (CMC)) was 0 of 6. Also, the T/C (T/C endpoint: mean survival time, dose: 50.0 mg/kg/injection, schedule: Q01DX001 (ip), vehicle: saline) was 128 % of control [4 of 6 alive].
As to `CCCCCCCC(=O)N1CCCN(C(=O)CCCCCCC)C1`, the survivor count under setting [4] is recorded as 2 of 6.
`N#CC=P(c1ccccc1)(c1ccccc1)c1ccccc1`: the survivor count is, setting by setting: under setting [7], 6 of 6; under setting [8], 6 of 6.
For the compound `C[N+](C)(C)CCC1CCCCC1`, the survivor count under setting [3] is 0 of 6 and the survivor count under setting [4] is listed as 0 of 6.
For `Cc1ccccc1C(O)C(Cl)(Cl)Cl` (stereo unspecified), the T/C (T/C endpoint: median survival time, dose: 100.0 mg/kg/injection, schedule: Q04DX003 (ip), vehicle: Klucel (hydroxypropylcellulose) (HPC)) is 130 % of control. In addition, under “T/C endpoint: median survival time, dose: 800.0 mg/kg/injection, schedule: Q04DX003 (ip), vehicle: Klucel (hydroxypropylcellulose) (HPC)”, the survivor count was 8 of 8.
In the case of `Oc1ccccc1O.[O-]c1ccccc1[O-].[O-]c1ccccc1[O-].[O]=[V+2]`, the survivor count is 2 of 6 (T/C endpoint: mean survival time, dose: 75.0 mg/kg/injection, schedule: Q01DX009 (ip), vehicle: saline); 0 of 6 (T/C endpoint: mean survival time, dose: 115.0 mg/kg/injection, schedule: Q04DX003 (ip), vehicle: saline); 0 of 6 (T/C endpoint: mean survival time, dose: 170.0 mg/kg/injection, schedule: Q04DX003 (ip), vehicle: saline).
As to `O=[N+]([O-])c1ccc(C[n+]2ccccc2)cc1`, the survivor count is, setting by setting: under setting [7], 3 of 6; under setting [8], 0 of 6.
With `N=C(N)c1cccc(NC(=O)c2ccc(C(=O)Nc3cccc(C(=N)N)c3)c([N+](=O)[O-])c2)c1`, the survivor count by setting is: (T/C endpoint: mean survival time, dose: 32.0 mg/kg/injection, schedule: Q01DX015 (ip), vehicle: water) 0 of 6; (T/C endpoint: mean survival time, dose: 64.0 mg/kg/injection, schedule: Q01DX015 (ip), vehicle: water) 0 of 6.
For `CNC(=N)c1ccc(NC(=N)c2ccc(NC(=N)c3ccc(NC(=O)Nc4ccc(C#N)cc4)cc3)cc2)cc1`, the T/C is, setting by setting: (T/C endpoint: mean survival time, dose: 6.5 mg/kg/injection, schedule: Q01DX015 (ip), vehicle: water) 128 % of control; (T/C endpoint: mean survival time, dose: 32.5 mg/kg/injection, schedule: Q01DX001 (ip), vehicle: water) 128 % of control; (T/C endpoint: mean survival time, dose: 40.0 mg/kg/injection, schedule: Q01DX001 (ip), vehicle: water) 126 % of control. Also, the survivor count is 0 of 6 (T/C endpoint: mean survival time, dose: 68.0 mg/kg/injection, schedule: Q01DX Z (ip), vehicle: water) and 0 of 6 (T/C endpoint: mean survival time, dose: 136.0 mg/kg/injection, schedule: Q01DX Z (ip), vehicle: water).
